# Experimental data: PubChem BioAssay AID504793 (Drosophila RNAi Screening Center, 2011)
# Aim: 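Whole-genome screen for parts of the DNA damage checkpoint at G2/M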 (primary screen)
# System: Drosophila S2R+ cells
# Knock-down reagent: long dsRNA against Drosophila genes, about 0.25 µg dsRNA per well
# Time to read-out: 4 days of dsRNA, then 4 hours of drug before read-out
# Treatment: doxorubicin 0.5 µM for 4 hours to cause double-strand breaks, in cells also given a low, harmless dose of dsRNA against nbs to sensitise the assay
# Measurement: 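Per-well count of mitotic cells stained for phospho-histone H3 after doxorubicin exposure, used as mitotic index; counts are raw and not normalised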
# Scale: mitotic cells: higher = more cells in mitosis, weaker G2 arrest
# Active means: 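a call needs confirmation in secondary tests, with other dsRNAs and a check of mitotic timing without damage, not just a high primary count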
# Meaning of the calls: active = confirmed in follow-up tests; inactive = not confirmed
# In all, the deposit lists about 23,000 reagents; shown is an unselected part of those that have a named target and a result. Of all reagents, 62 (0.27%) were called active. 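Calls come from follow-up tests whose scores are not deposited, so confirmed genes may have low counts here; counts are not normalised per plate.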 Raw values are not corrected between plates. The numbers tell different reagents against one gene apart. Names joined by + are all predicted targets of the reagent.
gene knocked down,dsRNA no.,"mitotic cells, replicate 1","mitotic cells, replicate 2",call
Mpcp1 (GeneID 37297),1,7,,inactive
pelo (GeneID 34286),1,2,,inactive
CG9044 (GeneID 33825),1,3,,inactive
Sgf29 (GeneID 37429),1,13,,inactive
Map205 (GeneID 43765),1,5,,inactive
Map205 (GeneID 43765),2,6,,inactive
pon (GeneID 31394),1,10,,inactive
AdipoR (GeneID 42656),1,7,,inactive
CG32833 (GeneID 37650),1,2,,inactive
Paris (GeneID 33657),1,3,,inactive
Paris (GeneID 33657),2,6,,inactive
CG14759 (GeneID 35803),1,6,,inactive
dlt (GeneID 46719),1,10,,inactive
dlt (GeneID 46719),2,4,,inactive
Indy (GeneID 40049),1,7,,inactive
Vm26Ab (GeneID 33827),1,11,,inactive
Vm26Ab (GeneID 33827),2,6,,inactive
CG14277 (GeneID 34129),1,4,,inactive
CG14605 (GeneID 40867),1,8,,inactive
CG14605 (GeneID 40867),2,7,,inactive
CG2059 (GeneID 31663),1,9,,inactive
Spn28Da (GeneID 34082),1,7,,inactive
Rpi (GeneID 246599),1,6,,inactive
CG43896 (GeneID 39360),1,9,,inactive
CG43896 (GeneID 39360),2,4,,inactive
fbl + CG33969,1,7,,inactive
GstE3 (GeneID 37108),1,5,,inactive
CG17122 (GeneID 40226),1,4,,inactive
CG17122 (GeneID 40226),2,4,,inactive
Ciz1 (GeneID 39161),1,6,,inactive
Ciz1 (GeneID 39161),2,,,inactive
Gapvd1 (GeneID 32070),1,12,,inactive
Gapvd1 (GeneID 32070),2,4,,inactive
CG30091 (GeneID 246449),1,12,,inactive
CG30091 (GeneID 246449),2,7,,inactive
CG9890 (GeneID 37659),1,6,,inactive
CG9890 (GeneID 37659),2,3,,inactive
Pgi (GeneID 35886),1,7,,inactive
CtsL2 (GeneID 36531),1,3,,inactive
CG14200 (GeneID 32939),1,2,,inactive
CG14200 (GeneID 32939),2,34,,inactive
CG14200 (GeneID 32939),3,7,,inactive
CG13994 (GeneID 33853),1,1,,inactive
Sgs4 (GeneID 31304),1,8,,inactive
Sgs4 (GeneID 31304),2,6,,inactive
IntS6 (GeneID 31496),1,12,,inactive
IntS6 (GeneID 31496),2,7,,inactive
CG4161 (GeneID 34907),1,8,,inactive
CG4161 (GeneID 34907),2,8,,inactive
CG7724 (GeneID 39918),1,7,,inactive
Pngl (GeneID 35527),1,11,,inactive
Rif1 (GeneID 246445),1,3,,inactive
Trs33 (GeneID 41866),1,4,,inactive
Arp10 (GeneID 32969),1,21,18,inactive
Arp10 (GeneID 32969),2,6,,inactive
CG42819 + CG42820,1,5,,inactive
CG1902 (GeneID 35993),1,8,,inactive
Or88a (GeneID 41715),1,5,,inactive
CG12708 + CG15646,1,4,,inactive
Ir7a (GeneID 31686),1,7,,inactive
zld (GeneID 32994),1,10,,inactive
zld (GeneID 32994),2,10,,inactive
CCT5 (GeneID 36308),1,196,,inactive
CCT5 (GeneID 36308),2,40,,inactive
His3.3B (GeneID 31848),1,6,,inactive
His3.3B (GeneID 31848),2,15,,inactive
His3.3B (GeneID 31848),3,11,,inactive
His3.3B (GeneID 31848),4,3,,inactive
Setx (GeneID 38904),1,6,,inactive
CG10631 (GeneID 35262),1,1,,inactive
Ser7 (GeneID 31917),1,6,,inactive
Ir21a (GeneID 33157),1,5,,inactive
conv (GeneID 36588),1,6,,inactive
Pih1D1 (GeneID 34685),1,2,,inactive
Pih1D1 (GeneID 34685),2,11,,inactive

4 entries from above, reformatted:
gene knocked down | dsRNA no. | mitotic cells, replicate 1 | mitotic cells, replicate 2 | call
CG43896 (GeneID 39360) | 1 | 9 | – | inactive
CG43896 (GeneID 39360) | 2 | 4 | – | inactive
fbl + CG33969 | 1 | 7 | – | inactive
GstE3 (GeneID 37108) | 1 | 5 | – | inactive
